Results published in paper PMC11445549.

The chains behind the UniProt entries cited, without tags or fusion partners.
UniProt P19474: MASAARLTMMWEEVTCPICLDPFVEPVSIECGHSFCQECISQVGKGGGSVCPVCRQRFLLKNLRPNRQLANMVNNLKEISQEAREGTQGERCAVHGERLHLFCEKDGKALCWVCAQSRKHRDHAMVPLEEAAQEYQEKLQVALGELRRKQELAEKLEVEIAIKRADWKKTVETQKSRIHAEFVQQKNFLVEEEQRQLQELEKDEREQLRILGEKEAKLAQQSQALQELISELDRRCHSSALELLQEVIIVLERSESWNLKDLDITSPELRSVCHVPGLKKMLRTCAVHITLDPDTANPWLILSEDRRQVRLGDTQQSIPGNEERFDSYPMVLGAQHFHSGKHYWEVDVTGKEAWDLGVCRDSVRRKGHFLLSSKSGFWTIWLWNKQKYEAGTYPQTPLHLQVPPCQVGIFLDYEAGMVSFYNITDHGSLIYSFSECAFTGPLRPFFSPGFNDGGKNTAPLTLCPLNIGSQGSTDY

Molecular target: T1, EPDR1 (bait of the immunoprecipitation-mass spectrometry in HepG2 cells) (UniProt Q9UM22)
T1 sequence: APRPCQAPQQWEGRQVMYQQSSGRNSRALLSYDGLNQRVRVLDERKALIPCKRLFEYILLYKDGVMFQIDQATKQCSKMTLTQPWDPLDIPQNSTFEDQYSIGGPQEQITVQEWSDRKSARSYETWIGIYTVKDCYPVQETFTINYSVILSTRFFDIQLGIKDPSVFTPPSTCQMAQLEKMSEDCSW
Assay: affinity purification with mass spectrometry; immunoprecipitation of EPDR1 from HepG2 cells, LC-MS/MS

Substance: TRIM21 (found by LC-MS/MS with EPDR1 in HepG2 cells) (from UniProt P19474 1-475)
- binding: binds

These are yes or no findings as the source states them, for the method shown. In cells and extracts the contact can be indirect. A yes stands for co-enrichment or nearness to the bait. Other partners may have been found.
